Data: publication PMC7616277
Results are given in words; binding and its absence hold for the method and conditions named. Binding seen in cells or lysates may run through a third protein. Some binding calls cover weakened binding; strength is not graded here.

Protein sequences, listed by entry. Tags and fused reporters are not part of them.
UniProt P48484: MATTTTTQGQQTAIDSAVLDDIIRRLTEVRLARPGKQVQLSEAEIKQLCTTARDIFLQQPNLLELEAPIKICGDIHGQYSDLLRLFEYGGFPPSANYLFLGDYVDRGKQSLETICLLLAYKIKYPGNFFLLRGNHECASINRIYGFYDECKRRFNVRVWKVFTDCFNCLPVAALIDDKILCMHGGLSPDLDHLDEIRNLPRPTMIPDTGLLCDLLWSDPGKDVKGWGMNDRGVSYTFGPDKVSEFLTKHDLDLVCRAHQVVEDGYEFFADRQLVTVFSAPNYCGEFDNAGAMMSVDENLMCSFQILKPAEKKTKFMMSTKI

Biological target: TOPP4-3xFLAG (Arabidopsis thaliana) (UniProt P48484)
Assay: co-IP; transient co-expression in N. benthamiana leaves; lysate incubated with anti-FLAG M2 Affinity Gel 2 hours at 4°C (150 mM NaCl, 0.2 % Tween-20); blots with anti-FLAG M2-HRP and anti-GFP; three replicates

B1: APRF1-mVENUS (protein, UniProt Q9LYK6 1-330)
chain: MSLTELDDGLVRRMAMGAVFSDFGGKIHSVGFHRTDDLLVTSSEDDSLRLFDIANAKQLKITYHKKHGTDRVCFTHHPSSLICSSRYNLESTGESLRYLSMYDNRILRYFKGHKDRVVSLCMSPINDSFMSGSLDRSVRLWDLRVNACQGILHLRGRPAVAYDQQGLVFAIAMEGGAVKLFDSRCYDKGPFDTFLVGGDTAEVNDIKFSNDGKSMLLTTTNNNIYVLDAYRGEKKCGFSLEPSQGTPIEATFTPDGKYVLSGSGDGTLHAWNIENPSEVARWENNIGVVSCLKWAPRRAMFVAASTVLTFWIPNDGESPAPADPPTDQQQ
For B1, the binding was “binds”.
